In article PMC8536665:
No constants are given. Whether binding was seen depends on the method and setting. In cells and extracts the contact can be indirect. Some entries that bind do so weakly or less than the wild type.

Sequences of proteins named here, by UniProt entry; tags and fusion partners are left off. A change or cut given only in a name is not applied to a line headed by its entry. A line that says so, or that is headed by a name, gives the form on record, which may keep a tag or linker.
UniProt Q16539: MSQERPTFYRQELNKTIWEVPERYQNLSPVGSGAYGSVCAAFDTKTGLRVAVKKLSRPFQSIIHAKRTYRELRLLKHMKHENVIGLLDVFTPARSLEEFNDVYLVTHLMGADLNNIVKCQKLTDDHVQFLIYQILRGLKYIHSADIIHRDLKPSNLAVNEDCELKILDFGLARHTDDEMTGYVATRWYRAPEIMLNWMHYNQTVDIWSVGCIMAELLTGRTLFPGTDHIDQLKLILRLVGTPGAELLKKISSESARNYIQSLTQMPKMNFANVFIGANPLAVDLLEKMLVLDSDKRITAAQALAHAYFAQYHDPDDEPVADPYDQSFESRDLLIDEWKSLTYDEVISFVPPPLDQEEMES
PIASxα (endogenous) (O75928-2, form named): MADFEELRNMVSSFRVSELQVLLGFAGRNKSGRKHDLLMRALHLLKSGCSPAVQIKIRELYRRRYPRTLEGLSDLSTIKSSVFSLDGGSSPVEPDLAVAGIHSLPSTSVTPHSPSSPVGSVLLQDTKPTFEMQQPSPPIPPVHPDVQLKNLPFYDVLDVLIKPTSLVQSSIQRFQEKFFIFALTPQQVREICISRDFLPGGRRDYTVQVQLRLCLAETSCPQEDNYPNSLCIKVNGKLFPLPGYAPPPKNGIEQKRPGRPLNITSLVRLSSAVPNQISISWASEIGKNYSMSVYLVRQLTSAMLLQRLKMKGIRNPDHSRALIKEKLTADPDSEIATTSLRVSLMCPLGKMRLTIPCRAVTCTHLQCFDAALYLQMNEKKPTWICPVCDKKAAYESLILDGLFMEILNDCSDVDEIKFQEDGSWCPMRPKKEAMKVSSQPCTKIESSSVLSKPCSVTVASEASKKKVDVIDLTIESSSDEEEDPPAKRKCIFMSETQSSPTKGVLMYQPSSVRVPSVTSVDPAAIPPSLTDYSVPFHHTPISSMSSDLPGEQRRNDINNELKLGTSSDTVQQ

How the values were obtained:
GST-p38α = GST-p38α (UniProt Q16539); assay: pull-down; lysates of HEK293T cells transfected with HA-tagged PIASs for 48 h incubated with purified GST-p38α overnight at 4 °C, immunoblotting; only the target purified
[1] = biological target: p38α (endogenous) (human (endogenous in HGC27)) (UniProt Q16539); assay: co-IP; endogenous proteins in HGC27 cells; which partner was precipitated is not told

Row | binding (GST-p38α) | binding [1] | Substance
1 | binds | – | HA-PIASxα (from UniProt O75928-2 1-572)
2 | – | binds | PIASxα (endogenous) (from UniProt O75928-2 1-572)
